The list shows a part of the results.

By UniProt entry, the sequences of proteins in these tests, tags left out.
UniProt Q0JBA9, entry or part of it: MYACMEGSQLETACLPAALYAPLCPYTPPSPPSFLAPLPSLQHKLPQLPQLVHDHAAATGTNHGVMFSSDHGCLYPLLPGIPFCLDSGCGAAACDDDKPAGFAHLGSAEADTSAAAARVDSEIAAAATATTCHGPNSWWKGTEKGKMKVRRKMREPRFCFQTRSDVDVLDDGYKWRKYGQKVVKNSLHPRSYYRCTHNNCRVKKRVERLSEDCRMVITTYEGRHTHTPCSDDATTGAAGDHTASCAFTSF

For the test, the target named is OsWRKY34 (Oryza sativa, UniProt Q0JBA9 1-250). Nature of the test: protein-binding microarray (RPBM); PBS, 2% BSA, 51.3 ng/ul salmon testes DNA, 50 uM zinc acetate, 200 nM TF, 25 C, 1 h; high values mean tight binding. Particulars: protein: recombinant; tags: N-terminal polyhistidine and DsRed monomer fusion (pET32a); label: CyDye5-dUTP incorporated in the synthesized complementary strand; 3' TTTTT single-stranded linker to array surface; dsDNA, one strand shown. An outline of the steps: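 Using Ni–NTA, transcription factors fused N-terminally to polyhistidine and DsRed were purified after expression in E. coli BL21-CodonPlus. These were incubated at 200 nM with a blocked, double-stranded custom Agilent array for 1 h at 25 °C in a buffer containing 50 µM zinc acetate, and the array was washed. The binding signal is per-feature fluorescence intensity (arbitrary units) on an Axon 4000B scanner.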
For the sequence “TAACTAAGACCCTCCACGCCTGTTAGTCTGTATGTCATTTCGGAGTCACCTAGTGCAG”, the binding signal was 10100 fluorescence intensity (a.u.).
Take “GCACTTCCTATCTCAAATACGACTGCTTCGTCGTAACCCTCGGAGTCACCTAGTGCAG”: the binding signal was 9460 fluorescence intensity (a.u.).
In the case of “ATTTAAAATAGTTTGACTTTGACCAAAGTCAAAACATCTTCGGAGTCACCTAGTGCAG”, the binding signal was 13500 fluorescence intensity (a.u.).
For the sequence “TGGCATTGGTAGGATCTAGATCTTGTGTTAATTATAATTCCGGAGTCACCTAGTGCAG”, the binding signal was 9020 fluorescence intensity (a.u.).
With “TTTTCTCCTACTCCTCTATTTTCTCAATCGTGTGTTTCAACGGAGTCACCTAGTGCAG”, the binding signal is 14400 fluorescence intensity (a.u.).
Take “TTCTTTCCACCGTCCGATCTCACCGTAGGGTCAATCTGGCCGGAGTCACCTAGTGCAG”: the binding signal was 8440 fluorescence intensity (a.u.).
To “CCGCATCAATCTTCAACTGGTCAACATAAAATCTACTGTTCGGAGTCACCTAGTGCAG” belongs 8940 fluorescence intensity (a.u.); to “ACATTTGTTAGAGTTCCATTATGCTCCTGCTAACTTTTTCCGGAGTCACCTAGTGCAG”, 9080 fluorescence intensity (a.u.); to “ATATGTTTTGTTCGGTACTATTTTGCTATAACGTGTGACGCGGAGTCACCTAGTGCAG”, 9630 fluorescence intensity (a.u.).
In the case of “CCTGCCATCATATTTCATGCCTTGCTACGTTTGCTTGATGCGGAGTCACCTAGTGCAG”, the binding signal was 11300 fluorescence intensity (a.u.).
For the sequence “GTTTGGTGTTTTTTGCGGGCATTTCTGACATGATTTTCCCCGGAGTCACCTAGTGCAG”, the binding signal is 8360 fluorescence intensity (a.u.).
In the case of “ACTTTGATCATAAAATGAGTTACTCTTACTTTCTTTTATTCGGAGTCACCTAGTGCAG”, the binding signal is 8920 fluorescence intensity (a.u.).
Take “AGTGAACTTTTTCCTTGGATGGACCAGTTGCGCCCTAGTTCGGAGTCACCTAGTGCAG”: the binding signal is 9350 fluorescence intensity (a.u.).
With “CCACGAAATCTGCTGCACTCACTCCCTGTGGTCGGGCCCACGGAGTCACCTAGTGCAG”, the binding signal was 9680 fluorescence intensity (a.u.).
As to “TATCTCACACGGGAAGTCGTTCGAGTCGTCGTCTTCGTCTCGGAGTCACCTAGTGCAG”, the binding signal was 8230 fluorescence intensity (a.u.).
To “TGGTGGAGCTGCCCAAGGTGGGCGGGAGCGGGGCGGCACTCGGAGTCACCTAGTGCAG” belongs 9280 fluorescence intensity (a.u.); to “TCCTCATCCAACTCGTCGTTTAATTTGCTGCACCGGCGAACGGAGTCACCTAGTGCAG”, 11600 fluorescence intensity (a.u.).
To “TCAGGGATTGGTGTGGTGCAGAACTGATCTAAGTCTAACTCGGAGTCACCTAGTGCAG” belongs 8310 fluorescence intensity (a.u.).
Turning to “TTAGTTTTTTAGCATAAATTTGTCGCAAATTTGTTTTATACGGAGTCACCTAGTGCAG”, the binding signal is 9500 fluorescence intensity (a.u.).
As for “ATCTATTAGCTTAGGTGTTGGTCTTCTCTCGTAGTCGGGTCGGAGTCACCTAGTGCAG”, the binding signal is 8140 fluorescence intensity (a.u.).
For the sequence “AGGGTTGGGGCAGTTGATGTCGATGATCAGTGTGATTCAGCGGAGTCACCTAGTGCAG”, the binding signal is 8550 fluorescence intensity (a.u.).
Turning to “GATGCGTTATACCCGGTTTTTGGTTTTGGAAGACTAGCGACGGAGTCACCTAGTGCAG”, the binding signal is 8280 fluorescence intensity (a.u.).
For the sequence “GTCATTCTAGCATTTCTCACATTCATATGGATTTTAATGACGGAGTCACCTAGTGCAG”, the binding signal is 8580 fluorescence intensity (a.u.).
Take “GACTAGTTTACCTGTTGTCTGTTCCGACATTCGAGCGGCCCGGAGTCACCTAGTGCAG”: the binding signal was 10400 fluorescence intensity (a.u.).
For “GATTATTATTTGTATTACTTTCTTAGGGTTTTCTCTTGATCGGAGTCACCTAGTGCAG”, the binding signal was 13200 fluorescence intensity (a.u.).
In the case of “GCCCGAGAGCGAACGGCCGTCTGCCACGTCATTTTCGCCGCGGAGTCACCTAGTGCAG”, the binding signal was 10200 fluorescence intensity (a.u.).
Turning to “TGTGAGGCAGTGTGGGATTTCCTTCTTTTTTTTTTCTTCTCGGAGTCACCTAGTGCAG”, the binding signal was 11500 fluorescence intensity (a.u.).
The result for “CCTTTTTAGTCGGACTTCTTTTTCTTTTTTACCGACTTTGCGGAGTCACCTAGTGCAG” reads 10300 fluorescence intensity (a.u.).
For the sequence “ATGTACAGCCCACACATCCCCTCAGCTTCCGTTATTACCTCGGAGTCACCTAGTGCAG”, the binding signal is 8500 fluorescence intensity (a.u.).
With “TCCACCACCACCACCTCCTCTGCTCTCCACTCCTCGCATGCGGAGTCACCTAGTGCAG”, the binding signal is 9540 fluorescence intensity (a.u.).
Turning to “TCCTGCTGCTCTGCGCCAACGCGCTCGTCTTCTTCCCGCGCGGAGTCACCTAGTGCAG”, the binding signal is 10500 fluorescence intensity (a.u.).
For “ATCTCCTTTCCTTTTTTTTTCTTTCAAAGGCGTAAAATTACGGAGTCACCTAGTGCAG”, the binding signal was 13200 fluorescence intensity (a.u.).
“CTGTCCCTGGGCCCTGTATATATCACAACTCACGAGCCATCGGAGTCACCTAGTGCAG”: the binding signal is 8890 fluorescence intensity (a.u.).
The result for “TTGTGCTTTATACTTTTGGTTAACCTATTATATTCCGCTTCGGAGTCACCTAGTGCAG” reads 10500 fluorescence intensity (a.u.); that for “AGAAACCATTCCTGGCCACCAACCTCTCTATCCGCCAAAACGGAGTCACCTAGTGCAG”, 9040 fluorescence intensity (a.u.).
Turning to “GCCCATATGTCCGTCACGAACTCACGATCCCGTTCCGACACGGAGTCACCTAGTGCAG”, the binding signal is 9380 fluorescence intensity (a.u.).
To “TATACCACCGTGAAGTACTACCACCGCATCTCCGGCAATGCGGAGTCACCTAGTGCAG” belongs 8030 fluorescence intensity (a.u.); to “CTCACCTCACTCACCTACATCGCCGGATCGATCGCACCGTCGGAGTCACCTAGTGCAG”, 8990 fluorescence intensity (a.u.); to “TACTACTATCTTCTTTCATTCAACTATCTTCTTATTTTATCGGAGTCACCTAGTGCAG”, 11200 fluorescence intensity (a.u.).
The result for “GCTTCAAACTCGAGCTTCTACCAGTACCAGCTACCAGGTGCGGAGTCACCTAGTGCAG” reads 8190 fluorescence intensity (a.u.).
With “CGTATCTTGGTCGTTTTTTTGTTGCGTTGTTATCATCTTTCGGAGTCACCTAGTGCAG”, the binding signal was 9120 fluorescence intensity (a.u.).
On to “TTTGTAGCTACTAGCTCAGCGTTTGTTTTTATTCTTCTTTCGGAGTCACCTAGTGCAG”, for which the binding signal was 8890 fluorescence intensity (a.u.).

Values taken from PMC7819943, “Rice protein-binding microarrays: a tool to detect cis-acting elements near promoter regions in rice”.
